# Where a name gives a salt, the structure may show the parent alone. ± gives the standard deviation of the averaged measurements. This is one part of the list. Most values lie within the scatter of the assay; repeated measurements hardly agree.
# System: A549
# Experiment: surface PD-L1 immunofluorescence intensity relative to IFN-gamma-only control (ratio); higher = more PD-L1 expression
# Conditions: 10 µM; exposure time 24 h; IFN-gamma 100 ng/mL
row,SMILES,surface PD-L1 immunofluorescence intensity
1,C/C(=N\NC(=O)C1C(=O)NCC1c1ccccc1)c1cccc(Br)c1 (configuration not stated),0.934
2,NCCCCCCCCCCNS(=O)(=O)c1cccc2c(Cl)cccc12 [A-7 hydrochloride],1.04
3,CC(=O)OCC[N+](C)(C)C [Acetylcholine chloride],0.838
4,N[C@@H](Cc1cc(-c2ccc(Cl)cc2Cl)cc(CP(=O)(O)O)c1O)C(=O)O,1.02
5,CC1(C)CCC2=C(O1)c1ccccc1C(=O)C2=O,0.995
6,OCCN1C[C@H](O)[C@@H](O)[C@H](O)[C@H]1CO [Miglitol (Glyset)],0.995
7,OCCN1C[C@H](O)[C@@H](O)[C@H](O)[C@H]1CO [Miglitol],0.954
8,CCC(=O)NC1CCc2cccc(OC)c2C1 (configuration not stated),1.15
9,S=C(NCc1ccc2c(c1)OCO2)N1CCN(c2ncnc3c2oc2ccccc23)CC1 [Amuvatinib (MP-470)],0.96
10,Cc1c(CCOc2ccc(C(=O)O)cc2)c2cc(Cl)ccc2n1C(c1ccccc1)c1ccccc1,1.03
11,N[C@@H](CSCCCO)C(=O)O [Fudosteine],1.11
12,C[C@H](CCC(=O)O)[C@H]1CC[C@H]2[C@@H]3CC[C@@H]4C[C@H](O)CC[C@]4(C)[C@H]3CC[C@]12C [Lithocholic acid],0.968 ± 0.02
13,CC(=O)SCC(Cc1ccccc1)C(=O)NCC(=O)OCc1ccccc1 (configuration not stated) [Racecadotril],0.917
14,O=C1OC(OC(=O)c2cccnc2Nc2cccc(C(F)(F)F)c2)c2ccccc21 (configuration not stated) [Talniflumate],1.02
15,COC(=O)C1=C(C)NC(C)=C(C(=O)OC(C)C)C1c1cccc2nonc12 (configuration not stated) [Isradipine],0.963 ± 0.037
16,COc1cc(OC)c(C(=O)CCCCN2CCC3(CC2)NC(=O)NC3=O)cc1NS(=O)(=O)c1ccc(C(F)(F)F)cc1,1.08
17,O=C(O)CCCC[C@@H]1SC[C@@H]2NC(=O)N[C@@H]21 [Biotin (Vitamin B7)],1.01
18,O=C(O)CCCC[C@@H]1SC[C@@H]2NC(=O)N[C@@H]21 [Biotin],0.981
19,CCOC(=O)Nc1ccc(NCc2ccc(F)cc2)nc1N [Flupirtine maleate],1.02

# 2 entries drawn at random from the list so far:
row,SMILES,surface PD-L1 immunofluorescence intensity
3,CC(=O)OCC[N+](C)(C)C [Acetylcholine chloride],0.838
11,N[C@@H](CSCCCO)C(=O)O [Fudosteine],1.11

# Next entries

row,SMILES,surface PD-L1 immunofluorescence intensity
1,COCC(=O)Nc1c(I)c(C(=O)NCC(O)CO)c(I)c(C(=O)N(C)CC(O)CO)c1I (configuration not stated) [Iopromide],1.05
2,"C[C@@]1(O)CCOC(=O)C1 [Mevalonic-D, L acid lactone]",1.01
3,CC1COc2c(N3CCN(C)CC3)c(F)cc3c(=O)c(C(=O)O)cn1c23 (configuration not stated) [Ofloxacin],0.923
4,O=c1[nH]cnc2c1ncn2[C@H]1CC[C@@H](CO)O1 [Didanosine],0.902
5,Fc1ccc([C@@H]2CCNC[C@H]2COc2ccc3c(c2)OCO3)cc1 [Paroxetine Hydrochloride],0.9
6,Nc1nc(O)c2ncn(CCC(CO)CO)c2n1 [Penciclovir],0.91
7,NC(CO)C(=O)NNCc1ccc(O)c(O)c1O (configuration not stated) [Benserazide hydrochloride],1.02
8,Cc1cccc(C(=O)NCN2CCN(c3ccccc3C#N)CC2)c1,1.05
9,CN(C)CCCN1c2ccccc2CCc2ccccc21 [Imipramine hydrochloride],0.944
10,C[C@H]1COc2c(N3CCN(C)CC3)c(F)cc3c(=O)c(C(=O)O)cn1c23 [Levofloxacin (Levaquin)],0.967
11,NCCC[C@H](N)CC(=O)N[C@H]1CNC(=O)[C@H]([C@H]2C[C@H](O)NC(N)=N2)NC(=O)/C(=C/NC(N)=O)NC(=O)[C@H](CO)NC(=O)[C@H](CO)NC1=O [Viomycin sulfate],0.978
12,CCN(CC)CCCCN1c2ccccc2Oc2ccc(Cl)cc21 [10-DEBC hydrochloride],0.864
13,CCCC(=O)OCOC(=O)C1=C(C)NC(C)=C(C(=O)OC)C1c1cccc(Cl)c1Cl (configuration not stated) [Cleviprex (Clevidipine)],1.16
14,FC(F)(F)c1cccc(-c2noc(-c3cc(-c4ccccc4)c(C(F)(F)F)s3)n2)c1,0.854
15,CN1CCC(OC(c2ccccc2)c2ccccc2)CC1 [Diphenylpyraline hydrochloride],1.07
16,CCOC(=O)[C@H](CCc1ccccc1)N[C@@H](C)C(=O)N1Cc2cc(OC)c(OC)cc2C[C@H]1C(=O)O [Moexipril hydrochloride],0.955
17,CCOC(=O)[C@H](CCc1ccccc1)N[C@@H](C)C(=O)N1Cc2cc(OC)c(OC)cc2C[C@H]1C(=O)O [Moexipril HCl],1.16
18,C/C=C1\[C@H]2C=C(C)C[C@]1(N)c1ccc(=O)[nH]c1C2 [(-)-Huperzine A],1.07

# — the supplement of paper PMC8732350
